PubChem BioAssay AID652243, Drosophila RNAi Screening Center – 2013
Test: 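Fly regulators of androgen-dependent reporter output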 (primary screen). Cells: Drosophila S2R+ cells. Reagent: long dsRNA against Drosophila genes. Timing: 72 h (48 h, then 24 h hormone). Conditions: synthetic androgen R1881 at 10 nM for 24 h. Read-out: 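Per-well raw luminescence of the androgen-driven firefly reporter and of the Renilla control, two replicates each, without normalisation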. Direction: firefly reporter light: higher = more light from androgen-responsive reporter; Renilla control light: higher = more constitutive control signal (cell number, transfection). Active means: 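Across duplicate plates, a knock-down whose log firefly/Renilla ratio shifted a set fold down or up from the GFP/LacZ control mean was a hit; the downward cut appears as both 1.5 and 3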. Calls: active = hit: reporter lowered or raised; inactive = no hit.
The screen tested about 24,000 reagents; below is an unselected part of those that have a named target and a result. Of all reagents, 246 (1%) got an active call. 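Plates not normalised; calls are printed but the firefly/Renilla ratio behind them is not deposited; fold cut for lowering reported inconsistently.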 Raw values are not corrected between plates. A plus sign joins genes that one reagent is predicted to hit. Reagent sequences are not shown. Not given: the amount of reagent.

gene | DRSC id | firefly reporter light, replicate 1 | firefly reporter light, replicate 2 | Renilla control light, replicate 1 | Renilla control light, replicate 2 | outcome
Sur (GeneID 34350) | DRSC03447 | 8.69e5 | 7.46e5 | 1.22e6 | 8.73e5 | inactive
Sur (GeneID 34350) | DRSC27276 | 3.91e5 | 2.15e5 | 5.62e5 | 3.83e5 | inactive
CG42327 (GeneID 41401) | DRSC14936 | 1.10e5 | 89219 | 1.46e6 | 1.72e6 | inactive
CG42327 (GeneID 41401) | DRSC14937 | 1.22e5 | 1.22e5 | 2.03e6 | 1.58e6 | inactive
CG42327 (GeneID 41401) | DRSC23337 | 6.35e5 | 5.68e5 | 4.53e5 | 4.27e5 | inactive
CG42327 (GeneID 41401) | DRSC28159 | 5.88e5 | 3.69e5 | 1.28e6 | 1.09e6 | inactive
CG42327 (GeneID 41401) | DRSC28248 | 3.74e5 | 8.64e5 | 1.23e6 | 1.74e6 | inactive
caly (GeneID 36794) | DRSC07182 | 1.05e6 | 6.64e5 | 1.91e6 | 1.25e6 | inactive
Sgf29 (GeneID 37429) | DRSC04076 | 8.66e5 | 8.27e5 | 2.53e6 | 2.24e6 | inactive
CG13437 (GeneID 37343) | DRSC06397 | 1.12e5 | 1.43e5 | 1.21e6 | 1.52e6 | inactive
Ube4B (GeneID 34699) | DRSC03277 | 1.36e6 | 1.21e6 | 1.52e6 | 1.50e6 | inactive
YME1L (GeneID 37636) | DRSC04378 | 4.34e5 | 5.33e5 | 7.02e5 | 5.23e5 | inactive
CG5114 (GeneID 39624) | DRSC10482 | 7.23e5 | 7.29e5 | 1.66e6 | 1.81e6 | inactive
Desat1 (GeneID 117369) | DRSC16668 | 64135 | 60708 | 1.26e6 | 1.02e6 | inactive
Desat1 (GeneID 117369) | DRSC23578 | 2.97e5 | 2.70e5 | 3.65e5 | 3.85e5 | inactive
CG13871 (GeneID 37303) | DRSC06430 | 92537 | 77247 | 8.77e5 | 1.02e6 | inactive
CG13871 (GeneID 37303) | DRSC27979 | 5.89e5 | 3.99e5 | 1.83e6 | 1.39e6 | inactive
CG15139 (retired record) (GeneID 12798250) | DRSC02439 | 1.14e5 | 1.10e5 | 9.52e5 | 1.47e6 | inactive
Alg12 (GeneID 41191) | DRSC16416 | 1.24e5 | 1.72e5 | 2.40e6 | 2.88e6 | inactive
CG3038 (GeneID 30970) | DRSC18618 | 1.88e5 | 2.56e5 | 2.53e6 | 2.43e6 | inactive
Fa2h (GeneID 35670) | DRSC06608 | 4.04e5 | 3.59e5 | 2.03e6 | 1.56e6 | inactive
Fa2h (GeneID 35670) | DRSC06609 | 2.00e5 | 2.08e5 | 1.68e6 | 2.10e6 | inactive
CG14739 (GeneID 41467) | DRSC14959 | 92584 | 1.10e5 | 1.43e6 | 1.59e6 | inactive
CG33286 (GeneID 2768984) | DRSC11691 | 3.33e5 | 2.97e5 | 2.72e6 | 3.09e6 | inactive
CG33286 (GeneID 2768984) | DRSC26119 | 2.13e5 | 2.11e5 | 5.18e5 | 4.50e5 | inactive
Ddr (GeneID 3346209) | DRSC02150 | 1.40e5 | 1.32e5 | 1.25e6 | 1.19e6 | inactive
Ddr (GeneID 3346209) | DRSC03229 | 4.33e5 | 4.44e5 | 3.00e6 | 3.22e6 | inactive
Ddr (GeneID 3346209) | DRSC03230 | 2.76e5 | 2.95e5 | 2.63e6 | 2.95e6 | inactive
Ddr (GeneID 3346209) | DRSC22818 | 6.00e5 | 1.10e6 | 6.95e5 | 1.28e6 | inactive
CG30287 (GeneID 246530) | DRSC03875 | 2.00e5 | 78633 | 2.36e5 | 60307 | inactive
alpha-Est1 (GeneID 40909) | DRSC12612 | 18803 | 36406 | 1.98e5 | 2.60e5 | inactive
oaf (GeneID 33435) | DRSC00831 | 89941 | 72417 | 8.20e5 | 8.36e5 | inactive
DCTN2-p50 (GeneID 44086) | DRSC07132 | 9.07e5 | 9.33e5 | 1.13e6 | 9.81e5 | inactive
l(2)34Fc (GeneID 34838) | DRSC01910 | 1.48e5 | 1.92e5 | 2.00e6 | 1.73e6 | inactive
kappaB-Ras + CG30503 | DRSC06619 | 3.65e5 | 1.63e5 | 1.98e6 | 9.70e5 | inactive
kappaB-Ras + CG30503 | DRSC07636 | 5.64e5 | 4.05e5 | 2.49e6 | 2.08e6 | inactive
kappaB-Ras + CG30503 | DRSC25537 | 5.32e5 | 5.69e5 | 5.49e5 | 5.00e5 | inactive
Hmbs (GeneID 46140) | DRSC08632 | 7.93e5 | 9.87e5 | 1.29e6 | 1.33e6 | inactive
CG8668 (GeneID 34107) | DRSC03101 | 5.86e5 | 8.30e5 | 1.43e6 | 1.13e6 | inactive
CG8668 (GeneID 34107) | DRSC24942 | 8.71e5 | 8.36e5 | 9.44e5 | 9.23e5 | inactive
CG7120 (GeneID 38954) | DRSC10773 | 2.17e5 | 2.00e5 | 2.79e6 | 1.80e6 | inactive
cGlr1 (GeneID 36744) | DRSC06270 | 83734 | 1.04e5 | 1.31e6 | 1.31e6 | inactive
CNMa (GeneID 38242) | DRSC08405 | 1.07e5 | 60272 | 1.49e6 | 1.63e6 | inactive
CG11381 (GeneID 31067) | DRSC17780 | 7970 | 10291 | 4.14e5 | 2.95e5 | inactive
CG11381 (GeneID 31067) | DRSC25125 | 7.44e5 | 5.85e5 | 8.82e5 | 8.40e5 | inactive
asRNA:CR31845 (GeneID 12798199) | DRSC23074 | 6.97e5 | 9.81e5 | 2.18e6 | 2.34e6 | inactive
Atg10 (GeneID 50253) | DRSC06172 | 5.21e5 | 4.02e5 | 2.48e6 | 2.03e6 | inactive
mthl5 (GeneID 41438) | DRSC16155 | 2.20e5 | 1.78e5 | 3.00e6 | 2.83e6 | inactive
CG11095 (GeneID 32348) | DRSC19375 | 58704 | 78358 | 6.11e5 | 5.68e5 | inactive
CG11095 (GeneID 32348) | DRSC26123 | 2.69e5 | 2.83e5 | 6.47e5 | 6.39e5 | inactive
GATAd (GeneID 34395) | DRSC02803 | 7.81e5 | 1.06e6 | 1.18e6 | 1.76e6 | inactive
awd (GeneID 43739) | DRSC16906 | 2.29e5 | 2.28e5 | 1.99e6 | 3.50e6 | inactive
awd (GeneID 43739) | DRSC36594 | – | – | – | – | inactive
Srg1 (GeneID 42969) | DRSC14640 | 1.78e5 | 2.23e5 | 2.14e6 | 2.00e6 | inactive
Srg1 (GeneID 42969) | DRSC29445 | 5.71e5 | 6.80e5 | 1.07e6 | 1.07e6 | inactive
CG4935 (GeneID 34955) | DRSC01924 | 1.13e5 | 1.29e5 | 1.12e6 | 1.42e6 | inactive
CG34171 (GeneID 5740474) | DRSC38909 | 4.86e5 | 5.30e5 | 1.79e6 | 1.68e6 | inactive
CG3568 (GeneID 31383) | DRSC18312 | 2.61e5 | 2.91e5 | 3.13e6 | 3.24e6 | inactive
CG3568 (GeneID 31383) | DRSC27793 | 2.22e5 | 2.20e5 | 5.58e5 | 6.96e5 | inactive
